SMILES strings stand for the structures. This is one part of the list. Repeats are few or missing, and single values can be far off.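 The apoptosis fraction was the count of cleaved-PARP antibody-stained nuclei relative to all DNA-stained nuclei, imaged in 1,536-well plates. Screening doses were set so most cells survived, and baseline and induced cleaved-PARP levels vary greatly across cell lines.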

This test has as its system COLO792. Description: cleaved PARP positive nuclei fraction relative to DMSO control; melanoma cells; higher = more apoptosis. As to conditions: library dose: low library concentration; 72 h.
`C[As](C)SC[C@H](NC(=O)CC[C@H](N)C(=O)O)C(=O)NCC(=O)O` [Darinaparsin] + c1cc(-c2cnn3cc(-c4ccc(OCCN5CCCCC5)cc4)cnc23)ccn1 [Dorsomorphin] (first compound 0.4 µM, partner dose 0.4 µM): the “cleaved PARP positive nuclei fraction” value amounted to 142%.

For `Cc1nc(Nc2ncc(C(=O)Nc3c(C)cccc3Cl)s2)cc(N2CCN(CCO)CC2)n1` [dasatanib] + Cc1cc(SCc2sc(-c3ccc(C(F)(F)F)c(F)c3)nc2C)ccc1OCC(=O)O [GW0742] (first compound 0.004 µM, partner dose 2 µM), the “cleaved PARP positive nuclei fraction” value turned out to be 71.4%.

As to `C/C(O)=C(\C#N)C(=O)Nc1cc(Br)ccc1Br` + Oc1nc(-c2ccc(C(F)(F)F)cc2)nc2c1CSCC2 [XAV939] (first compound 2 µM, partner dose 2 µM), the “cleaved PARP positive nuclei fraction” value was 153%.

In the case of `O=C(Nc1cccc(Cl)c1)Nc1ncc(CCNc2ncnc3ccsc23)s1` + C/C(O)=C(\C#N)C(=O)Nc1cc(Br)ccc1Br [LFM-A13] (first compound 0.0008 µM, partner dose 2 µM), the “cleaved PARP positive nuclei fraction” value is 105%.

As for `Cc1ccc(NC(=O)c2cccc(N(C)C)c2)cc1NC(=O)c1ccc(O)cc1` + O=C(Oc1ccc([N+](=O)[O-])cc1)N1CCC(C(O)(c2ccc3c(c2)OCO3)c2ccc3c(c2)OCO3)CC1 [JZL184] (first compound 2 µM, partner dose 1 µM), the “cleaved PARP positive nuclei fraction” value amounted to 85.8%.

On to `O=C(Oc1ccc([N+](=O)[O-])cc1)N1CCC(C(O)(c2ccc3c(c2)OCO3)c2ccc3c(c2)OCO3)CC1` + CC(C)CCN1c2nc(Nc3cc(F)c(O)c(F)c3)ncc2N(C)C(=O)C1C [BID1870] (first compound 1 µM, partner dose 0.2 µM), for which the “cleaved PARP positive nuclei fraction” value came to 118%.

The values are drawn from the supplement of paper PMC4604168 (melanoma cell lines).
